In publication PMC12493026:
Results are given in words; binding and its absence hold for the method and conditions named. In cells and extracts the contact can be indirect. Some binding calls cover weakened binding; strength is not graded here.

Amino acid sequences for entries named in this document (tags omitted).
UniProt Q8C6M1: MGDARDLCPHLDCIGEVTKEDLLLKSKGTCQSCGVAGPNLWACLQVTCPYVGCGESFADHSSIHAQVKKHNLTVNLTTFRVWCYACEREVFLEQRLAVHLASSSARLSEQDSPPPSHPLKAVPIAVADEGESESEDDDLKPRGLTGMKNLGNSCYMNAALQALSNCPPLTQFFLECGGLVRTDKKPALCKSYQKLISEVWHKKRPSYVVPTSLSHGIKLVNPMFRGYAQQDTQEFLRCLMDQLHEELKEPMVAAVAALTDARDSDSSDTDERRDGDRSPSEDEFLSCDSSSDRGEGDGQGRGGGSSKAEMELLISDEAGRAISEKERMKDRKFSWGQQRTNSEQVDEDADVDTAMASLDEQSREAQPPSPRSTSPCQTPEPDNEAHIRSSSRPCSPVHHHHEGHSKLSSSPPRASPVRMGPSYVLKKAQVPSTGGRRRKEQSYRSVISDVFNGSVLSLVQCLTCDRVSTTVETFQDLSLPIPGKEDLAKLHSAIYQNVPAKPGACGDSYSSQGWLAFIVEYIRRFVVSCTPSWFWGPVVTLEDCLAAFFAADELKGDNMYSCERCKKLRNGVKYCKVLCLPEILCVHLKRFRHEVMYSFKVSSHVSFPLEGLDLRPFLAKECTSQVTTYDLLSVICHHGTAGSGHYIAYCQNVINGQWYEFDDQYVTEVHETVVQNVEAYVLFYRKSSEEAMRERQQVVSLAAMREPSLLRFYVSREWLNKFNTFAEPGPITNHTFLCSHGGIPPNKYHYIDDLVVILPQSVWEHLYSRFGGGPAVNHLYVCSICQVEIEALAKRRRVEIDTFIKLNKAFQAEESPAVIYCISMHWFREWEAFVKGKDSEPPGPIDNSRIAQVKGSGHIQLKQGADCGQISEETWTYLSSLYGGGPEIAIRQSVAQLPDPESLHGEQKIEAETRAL
UniProt Q8R4B8: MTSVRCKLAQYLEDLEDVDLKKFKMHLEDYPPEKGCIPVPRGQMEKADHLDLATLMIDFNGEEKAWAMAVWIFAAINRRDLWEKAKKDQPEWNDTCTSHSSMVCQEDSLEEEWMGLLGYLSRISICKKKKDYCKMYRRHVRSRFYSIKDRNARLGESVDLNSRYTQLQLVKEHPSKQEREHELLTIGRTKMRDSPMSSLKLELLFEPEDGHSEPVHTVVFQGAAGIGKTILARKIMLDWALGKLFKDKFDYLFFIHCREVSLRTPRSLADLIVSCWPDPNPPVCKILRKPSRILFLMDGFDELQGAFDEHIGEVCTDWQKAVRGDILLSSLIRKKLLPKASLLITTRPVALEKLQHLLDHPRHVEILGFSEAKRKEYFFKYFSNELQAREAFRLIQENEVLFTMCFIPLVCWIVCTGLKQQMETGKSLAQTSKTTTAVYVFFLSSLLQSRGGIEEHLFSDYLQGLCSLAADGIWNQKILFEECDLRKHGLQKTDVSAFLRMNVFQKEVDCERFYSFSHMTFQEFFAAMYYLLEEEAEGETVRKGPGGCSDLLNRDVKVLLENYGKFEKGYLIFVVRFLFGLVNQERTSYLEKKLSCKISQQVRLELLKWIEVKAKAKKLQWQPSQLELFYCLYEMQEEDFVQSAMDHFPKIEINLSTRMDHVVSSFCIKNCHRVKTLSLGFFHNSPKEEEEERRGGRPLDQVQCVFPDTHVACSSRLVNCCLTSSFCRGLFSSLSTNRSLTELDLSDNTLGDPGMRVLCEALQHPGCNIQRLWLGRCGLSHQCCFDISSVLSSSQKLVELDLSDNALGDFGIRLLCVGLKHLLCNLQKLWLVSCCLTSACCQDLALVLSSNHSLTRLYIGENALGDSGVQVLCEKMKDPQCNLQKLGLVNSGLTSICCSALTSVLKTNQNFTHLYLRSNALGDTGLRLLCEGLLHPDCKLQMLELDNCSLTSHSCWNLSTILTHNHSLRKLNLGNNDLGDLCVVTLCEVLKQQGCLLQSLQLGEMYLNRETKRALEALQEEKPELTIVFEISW

Key:
[1] = target: Flag-USP20 (ubiquitin-specific peptidase 20) (UniProt Q8C6M1); assay: co-IP; NIH/3T3 cells co-transfected with Flag-USP20 (WT or mutated) and His-NLRP3; USP20 immunoprecipitated by anti-Flag antibody
[2] = target: USP20, endogenous in mouse heart tissue (mouse (endogenous in heart tissue)) (UniProt Q8C6M1); assay: co-IP; heart tissue of mice induced by LPS, RIPA lysate; endogenous USP20 immunoprecipitated by anti-USP20, protein G-Sepharose

| Substance | binding [1] | binding [2] |
| --- | --- | --- |
| His-NLRP3 (from UniProt Q8R4B8 1-1033) | binds |  |
| NLRP3, endogenous in mouse heart tissue (from UniProt Q8R4B8 1-1033) |  | binds |
